The subject of data set [1] is male albino Cartworth Farms No. 1 mice. The data set is described as follows: maximal electroshock seizure (MES) test in mice. Type of data set: in vivo. As to conditions: intraperitoneal, in brackets beside ED50. A general note: Protection in the maximal electroshock model is a classic sign of anticonvulsant action.
Data set [2] shares this test system. Description: rotorod test, neurologic toxicity in mice. As to conditions: intraperitoneal, in brackets beside TD50. Type of data set: in vivo. For orientation: In the rotarod test animals must keep their balance on a rotating rod.

Seven molecules from US5880158A, “Propionamide anticonvulsants” (Research Corporation Tech., Inc., priority 1997, dated 1999) can be followed below.

Turning to `O=C(NCc1ccccc1)C(O)CO` (racemic) [R, S OH CH2 OH, N-Benzyl 2,3-Dihydroxypropionamide], the “time of peak effect, MES ED50” value in data set [1] came to 0.5 h.
Consider `COC[C@@H](OC)C(=O)NCc1ccccc1` [R OCH3 CH2 OCH3, (R)-N-Benzyl-2,3-dimethoxypropionamide], for which, in data set [2], the “time of peak effect, Tox TD50” value worked out at 0.5 h. For the same molecule, the “time of peak effect, MES ED50” value in data set [1] stood at 0.5 h.
As to `COCC(OC)C(=O)NCc1ccccc1` (stereo not drawn) [R, S OCH3 CH2 OCH3, N-BENZYL 2,3-DIMETHOXY PROPIONAMIDE], in data set [2], the “time of peak effect, Tox TD50” value came to 0.25 h. For the same molecule, in data set [1], the “time of peak effect, MES ED50” value stood at 0.25 h.
As to `COC[C@H](OC)C(=O)NCc1ccccc1` [S OCH3 CH2 OCH3, (S)-N-Benzyl-2,3-dimethoxypropionamide], the “time of peak effect, MES ED50” value in data set [1] was 0.5 h.
Consider `CCC1(c2ccccc2)C(=O)NC(=O)NC1=O` [phenobarbital], for which, in data set [2], the “time of peak effect, Tox TD50” value turned out to be 0.5 h. In addition, the “time of peak effect, MES ED50” value in data set [1] came out at 1 h.
As for `O=C1NC(=O)C(c2ccccc2)(c2ccccc2)N1` [phenytoin], the “time of peak effect, Tox TD50” value in data set [2] worked out at 0.5 h. Moreover, the “time of peak effect, MES ED50” value in data set [1] was determined as 2 h.
Take `CCCC(CCC)C(=O)O` [valproate]: the “time of peak effect, Tox TD50” value in data set [2] worked out at 0.25 h. In addition, in data set [1], the “time of peak effect, MES ED50” value came out at 0.25 h.
